Our source for the binding values is US20100120685A1.

By UniProt entry, the sequences of proteins in these tests, tags left out. Residues count along the entry.
UniProt O75197, residues 32-1615: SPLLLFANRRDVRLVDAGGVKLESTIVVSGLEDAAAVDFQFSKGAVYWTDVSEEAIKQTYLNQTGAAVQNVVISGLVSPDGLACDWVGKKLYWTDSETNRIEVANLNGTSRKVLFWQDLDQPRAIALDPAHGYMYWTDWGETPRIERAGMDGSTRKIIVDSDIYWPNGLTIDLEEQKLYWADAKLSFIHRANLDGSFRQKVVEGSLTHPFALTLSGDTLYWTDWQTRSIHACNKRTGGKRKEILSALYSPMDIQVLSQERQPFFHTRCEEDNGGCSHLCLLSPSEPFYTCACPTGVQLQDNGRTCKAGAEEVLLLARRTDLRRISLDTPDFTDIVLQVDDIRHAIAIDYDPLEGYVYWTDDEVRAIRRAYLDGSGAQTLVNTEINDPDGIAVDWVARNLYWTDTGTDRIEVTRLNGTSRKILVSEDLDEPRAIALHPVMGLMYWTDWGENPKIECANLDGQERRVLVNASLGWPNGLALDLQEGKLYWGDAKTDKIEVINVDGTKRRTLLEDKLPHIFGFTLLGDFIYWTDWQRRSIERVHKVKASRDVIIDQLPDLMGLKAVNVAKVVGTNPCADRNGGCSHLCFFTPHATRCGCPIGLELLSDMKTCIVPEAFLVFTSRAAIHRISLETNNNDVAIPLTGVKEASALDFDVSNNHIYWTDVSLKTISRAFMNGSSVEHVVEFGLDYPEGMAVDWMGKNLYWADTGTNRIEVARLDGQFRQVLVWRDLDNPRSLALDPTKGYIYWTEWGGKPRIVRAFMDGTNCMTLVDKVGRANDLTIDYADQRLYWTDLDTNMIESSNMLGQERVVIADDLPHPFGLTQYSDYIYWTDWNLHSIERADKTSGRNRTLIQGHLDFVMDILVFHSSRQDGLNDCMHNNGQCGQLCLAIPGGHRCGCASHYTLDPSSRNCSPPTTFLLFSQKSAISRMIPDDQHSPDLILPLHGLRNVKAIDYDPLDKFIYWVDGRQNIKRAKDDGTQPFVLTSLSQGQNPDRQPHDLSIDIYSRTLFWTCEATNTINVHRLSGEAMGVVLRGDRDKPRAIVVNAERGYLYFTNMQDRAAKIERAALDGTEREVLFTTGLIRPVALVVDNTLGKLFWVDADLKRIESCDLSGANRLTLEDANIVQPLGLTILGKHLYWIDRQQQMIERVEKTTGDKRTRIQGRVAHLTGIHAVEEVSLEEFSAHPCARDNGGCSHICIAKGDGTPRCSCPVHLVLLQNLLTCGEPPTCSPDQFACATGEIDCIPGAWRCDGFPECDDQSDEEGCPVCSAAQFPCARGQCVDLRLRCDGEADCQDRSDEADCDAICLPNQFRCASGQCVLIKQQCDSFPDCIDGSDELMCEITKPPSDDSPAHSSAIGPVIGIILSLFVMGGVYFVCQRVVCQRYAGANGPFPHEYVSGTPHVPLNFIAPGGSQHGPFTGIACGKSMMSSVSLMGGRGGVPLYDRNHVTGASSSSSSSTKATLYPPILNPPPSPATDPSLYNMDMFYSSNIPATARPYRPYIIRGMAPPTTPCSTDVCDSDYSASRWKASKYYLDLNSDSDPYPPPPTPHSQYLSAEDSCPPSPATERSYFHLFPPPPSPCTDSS

The target in assay [1] is LRP5 (as used in Example 11) (UniProt O75197). The assay is described as follows: legend of FIG. 10.
For assay [2] the target is unchanged. The assay is described as follows: summary of Example 11.

Results are given in words; binding and its absence hold for the method and conditions named. Some entries that bind do so weakly or less than the wild type.

With KGGGSKEKNKTKPEKAKKKEGDPKPRASKEDNRAGSR [Mesd oligopeptide …], the binding entry in assay [1] and in assay [2] was “binds” each time.
